Measured values published in PubChem BioAssay AID248 (DTP/NCI, 2004).
The list is a part of this screen's results and no random one: it gathers tests that were run many times, whatever their T/C, doses with no T/C, and many T/C values between a quarter and a half above the control. Further doses and runs are listed elsewhere. T/C: endpoint of the treated group in % of that of the vehicle group. Some entries give survivors of the animals treated and no T/C: the source files T/C as zero there, which appears to mark a toxic dose or a test without result, not a measured value. Some doses without a T/C left all or most animals alive at the check, yet need not have been tolerated: the source hardly ever lists a survival T/C far under the control, and the zero likely stands for such cases as well. Survivors were counted at the toxicity check, usually on the fifth day, unless a day is given; later deaths do not show. Schedules are NCI's codes, taken here to give the interval after Q, in days (D) or hours (H), and the number of doses after X. Some schedules carry Z or #; the key to these is not given. Some entries were tested several times; their values stand side by side, smallest first. Some molecules as drawn cover several salts, stereoisomers or complexes of the source; a dose is that of the sample tested. For survival time, this PubChem deposit counts one and a half times the control or more as active, and values a quarter to a half above the control carry no call in these data; other NCI protocols may use other cut-offs. Some T/C values carry the count of animals alive at the toxicity check (mostly the fifth day); where none is given, no animal had died by that day. Counts like (3×) give the number of equal values in this list.

Tested on: L1210 leukemia ip in BDF1 mice, survival T/C
Experiment: NCI In Vivo Anticancer Drug Screen. Data for tumor model L1210 Leukemia (intraperitoneal) in B6D2F1 (BDF1) mice
Conditions: T/C endpoint: mean survival time, higher T/C = longer survival
[1] = dose: 200.0 mg/kg/injection, schedule: Q01DX009 (ip), vehicle: saline
[2] = dose: 400.0 mg/kg/injection, schedule: Q01DX009 (ip), vehicle: saline with Tween-80
[3] = dose: 400.0 mg/kg/injection, schedule: Q04DX003 (ip), vehicle: saline with Tween-80
[4] = dose: 400.0 mg/kg/injection, schedule: Q01DX001 (ip), vehicle: saline with Tween-80
[5] = dose: 400.0 mg/kg/injection, schedule: Q04DX003 (ip), vehicle: saline
[6] = dose: 50.0 mg/kg/injection, schedule: Q04DX002 (ip), vehicle: Klucel (hydroxypropylcellulose) (HPC)
[7] = dose: 100.0 mg/kg/injection, schedule: Q04DX002 (ip), vehicle: Klucel (hydroxypropylcellulose) (HPC)
[8] = dose: 200.0 mg/kg/injection, schedule: Q04DX002 (ip), vehicle: Klucel (hydroxypropylcellulose) (HPC)
[9] = dose: 400.0 mg/kg/injection, schedule: Q04DX002 (ip), vehicle: Klucel (hydroxypropylcellulose) (HPC)
[10] = dose: 400.0 mg/kg/injection, schedule: Q04DX002 (ip), vehicle: saline with Tween-80
[11] = dose: 100.0 mg/kg/injection, schedule: Q01DX009 (ip), vehicle: saline with Tween-80
[12] = dose: 400.0 mg/kg/injection, schedule: Q01DX001 (ip), vehicle: carboxymethylcellulose (CMC)

CNS(=O)(=O)c1ccc(Cl)cc1
survivor count [1]: 2 of 6 | survivor count [2]: 1 of 6 | survivor count (dose: 400.0 mg/kg/injection, schedule: Q01DX009 (ip), vehicle: saline): 0 of 6

CCN(CC)/N=C/CC(C)Nc1ccnc2cc(Cl)ccc12 (configuration not stated)
survivor count (dose: 12.5 mg/kg/injection, schedule: Q01DX009 (ip), vehicle: acetone): 2 of 6 | survivor count (dose: 25.0 mg/kg/injection, schedule: Q04DX003 (ip), vehicle: saline): 0 of 6 | survivor count (dose: 50.0 mg/kg/injection, schedule: Q04DX003 (ip), vehicle: saline): 0 of 6

Nc1ncnc2nc[nH]c12.[Tl]
survivor count (dose: 12.5 mg/kg/injection, schedule: Q01DX009 (ip), vehicle: water): 4 of 6

COc1nccc2ccccc12
survivor count [3]: 6 of 6

Cc1cc(Cl)c(Cl)cc1NC(=O)C(Br)C(Br)C(=O)O (configuration not stated)
survivor count [2]: 1 of 6

Cc1ccc(NC(=O)CBr)cc1
survivor count (dose: 100.0 mg/kg/injection, schedule: Q01DX001 (ip), vehicle: other): 1 of 4 | survivor count (dose: 200.0 mg/kg/injection, schedule: Q01DX001 (ip), vehicle: other): 0 of 4 | survivor count (dose: 400.0 mg/kg/injection, schedule: Q01DX001 (ip), vehicle: other): 0 of 4

Cc1ccc(NC(=O)c2ccccc2Cl)cc1Cl
T/C (dose: 200.0 mg/kg/injection, schedule: Q04DX003 (ip), vehicle: saline): 125 % of control

O=C(O)CCCc1ccc2sc3ccccc3c2c1
survivor count [4]: 2 of 6

NC1C2CC3CC(C2)CC1C3 (configuration not stated)
survivor count (dose: 150.0 mg/kg/injection, schedule: Q01DX001 (ip), vehicle: other): 1 of 6 | survivor count (dose: 300.0 mg/kg/injection, schedule: Q01DX001 (ip), vehicle: other): 0 of 6

CCOC(=O)C12CCCC(C1=O)[N+](CC)(CC)CC2 (configuration not stated)
survivor count (dose: 300.0 mg/kg/injection, schedule: Q01DX001 (ip), vehicle: saline): 0 of 6

NNC(=O)[C@H]1CC[C@H]1C(=O)NN
T/C [1]: 128 % of control | survivor count (dose: 300.0 mg/kg/injection, schedule: Q01DX009 (ip), vehicle: saline): 5 of 6 | T/C [5]: 100, 113 [5 of 6 alive], 125, 132 % of control

C=C(C(=O)O)C(=O)O
survivor count [3]: 2 of 6

COC[CH2][Hg][O]C(C)=O
survivor count (dose: 25.0 mg/kg/injection, schedule: Q04DX002 (ip), vehicle: Klucel (hydroxypropylcellulose) (HPC)): 3 of 3 | survivor count [6]: 0 of 3 | survivor count [7]: 0 of 3 | survivor count [8]: 0 of 3 | survivor count [9]: 0 of 3

CNC(=O)c1ccc(NC(=O)Nc2cccc(C3=NCCN3)c2)cc1NC(=O)Nc1cccc(C2=NCCN2)c1
T/C (dose: 18.0 mg/kg/injection, schedule: Q01DX015 (ip), vehicle: methylcellulose (MC)): 125 % of control [5 of 6 alive] | T/C (dose: 18.0 mg/kg/injection, schedule: Q01DX Z (ip), vehicle: carboxymethylcellulose (CMC)): 131 % of control | survivor count (dose: 27.0 mg/kg/injection, schedule: Q01DX015 (ip), vehicle: methylcellulose (MC)): 0 of 6 | survivor count (dose: 36.0 mg/kg/injection, schedule: Q01DX015 (ip), vehicle: methylcellulose (MC)): 0 of 6 | survivor count (dose: 54.0 mg/kg/injection, schedule: Q01DX015 (ip), vehicle: methylcellulose (MC)): 0 of 6 | survivor count (dose: 72.0 mg/kg/injection, schedule: Q01DX015 (ip), vehicle: methylcellulose (MC)): 0 of 6

Cc1c2ccncc2cc2c3ccccc3n(CC3CO3)c12 (configuration not stated)
T/C (dose: 37.5 mg/kg/injection, schedule: Q04DX003 (ip), vehicle: Klucel (hydroxypropylcellulose) (HPC)): 128 % of control | T/C (dose: 150.0 mg/kg/injection, schedule: Q04DX003 (ip), vehicle: Klucel (hydroxypropylcellulose) (HPC)): 126 % of control

O=[N+]([O-])c1ccc(O)c(C=NCC2CCCC[N-]2)c1.O=[N+]([O-])c1ccc(O)c(C=NCC2CCCC[N-]2)c1.[Ni+2] (configuration not stated)
survivor count [3]: 6 of 6

COc1ccccc1NC(=S)N1CCC(CCCC2CCN(C(=S)Nc3ccccc3OC)CC2)CC1
survivor count (dose: 400.0 mg/kg/injection, schedule: Q01DX009 (ip), vehicle: Klucel (hydroxypropylcellulose) (HPC)): 6 of 6

NC(=S)c1cccc(OCc2ccccc2)c1
survivor count [2]: 3 of 6

CC[N+](CC)(CC)CCCCCCCC[N+](CC)(CC)CC
survivor count (dose: 3.12 mg/kg/injection, schedule: Q01DX009 (ip), vehicle: water): 3 of 6 | survivor count (dose: 3.12 mg/kg/injection, schedule: Q04DX003 (ip), vehicle: saline): 1 of 6 | survivor count (dose: 6.25 mg/kg/injection, schedule: Q04DX003 (ip), vehicle: saline): 0 of 6 | survivor count (dose: 100.0 mg/kg/injection, schedule: Q04DX003 (ip), vehicle: water): 0 of 6 | survivor count (dose: 200.0 mg/kg/injection, schedule: Q04DX003 (ip), vehicle: water): 0 of 6 | survivor count (dose: 400.0 mg/kg/injection, schedule: Q04DX003 (ip), vehicle: water): 0 of 6

Cc1c([N+](=O)[O-])cc(C(C)(C)C)c(O)c1[N+](=O)[O-]
survivor count (dose: 25.0 mg/kg/injection, schedule: Q01DX009 (ip), vehicle: saline with Tween-80): 0 of 6 | survivor count [6]: 1 of 3 | survivor count (dose: 50.0 mg/kg/injection, schedule: Q04DX002 (ip), vehicle: saline with Tween-80): 0 of 3 | survivor count [7]: 0 of 3 | survivor count (dose: 100.0 mg/kg/injection, schedule: Q04DX002 (ip), vehicle: saline with Tween-80): 0 of 3 | survivor count [8]: 0 of 3 | survivor count (dose: 200.0 mg/kg/injection, schedule: Q04DX002 (ip), vehicle: saline with Tween-80): 0 of 3 | survivor count [9]: 0 of 3 | survivor count [10]: 0 of 3

O=C(NC(=S)Nc1ccc(F)cc1)c1cccc([N+](=O)[O-])c1
T/C (dose: 50.0 mg/kg/injection, schedule: Q01DX009 (ip), vehicle: saline with Tween-80): 88, 104, 105 % of control (2×) | T/C [11]: 89 [2 of 3 alive] and 96 % of control [5 of 6 alive] | survivor count [11]: 1 of 3 and 3 of 6 | survivor count (dose: 200.0 mg/kg/injection, schedule: Q01DX009 (ip), vehicle: saline with Tween-80): 0 of 3 and 2 of 6 | survivor count (dose: 200.0 mg/kg/injection, schedule: Q04DX003 (ip), vehicle: saline with Tween-80): 0 of 6 | survivor count [4]: 1 of 6 | survivor count [10]: 0 of 3 and 1 of 6

O=C1CCCC(=S)N1
survivor count (dose: 200.0 mg/kg/injection, schedule: Q01DX001 (ip), vehicle: carboxymethylcellulose (CMC)): 1 of 4 | survivor count [12]: 2 of 4

NC(=O)c1ccc(NC(=O)/C=C/C(=O)Nc2ccc(C(N)=O)cn2)nc1
T/C (dose: 2.0 mg/kg/injection, schedule: Q01DX Z (ip), vehicle: saline): 125 and 126 % of control | T/C (dose: 4.0 mg/kg/injection, schedule: Q01DX Z (ip), vehicle: saline): 131 and 147 % of control | survivor count (dose: 8.0 mg/kg/injection, schedule: Q01DX Z (ip), vehicle: saline): 6 of 6 | T/C (dose: 10.0 mg/kg/injection, schedule: Q04DX003 (ip), vehicle: saline): 126 % of control | T/C (dose: 20.0 mg/kg/injection, schedule: Q04DX003 (ip), vehicle: saline): 135 % of control | survivor count (dose: 22.5 mg/kg/injection, schedule: Q01DX009 (ip), vehicle: saline): 6 of 6 | survivor count (dose: 45.0 mg/kg/injection, schedule: Q01DX009 (ip), vehicle: saline): 0 of 6 | survivor count (dose: 70.0 mg/kg/injection, schedule: Q04DX003 (ip), vehicle: saline): 6 of 6 | survivor count (dose: 105.0 mg/kg/injection, schedule: Q04DX003 (ip), vehicle: saline): 5 of 6

COC1OC(CO)C(O)C(N)C1O (configuration not stated)
survivor count [5]: 1 of 6

CCOCC1c2ccccc2CCN1Cc1c[nH]c2ccccc12 (configuration not stated)
survivor count [12]: 2 of 6
